Measured values taken from PubChem BioAssay AID1347075 (National Center for Advancing Translational Sciences (NCATS), 2019).
In all, about 400,000 compounds went through this assay and about 5,500 (1.4%) were called active. The inconclusive results got no clear call from the source; some entries with a clear call stand among them for comparison. The call rests on the fitted dose curve; in most records, active means well fitted cell-killing curve with a large enough effect; inconclusive means small, poorly fitted or top-dose-only effect, or effect the other way; inactive means flat fitted curve, though single readings scatter. Where the call is inconclusive, the potency comes from a doubtful curve fit.

Assay: qHTS assay for MDR1-selective chemotherapeutics: Primary screen using the parental adenocarcinoma cell KB-3-1; further: nearly all actives have a fitted effect of over 60% in size
Conditions: KB-3-1 viability, CellTiter-Glo ATP luminescence, 72 h; activity change, negative = cytotoxic: at 46.1 µM (top of the series)
In short: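 Here the drug-naive KB-3-1 line serves as comparator for MDR sub-line selectivity; cells received compound titrations, 72 h at 37 °C, then CellTiter-Glo readout.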
On the % scale 0 is the no-effect control and ±100 the full control effect; potency means the concentration at half of the fitted maximal effect.

Structure (SMILES)	Potency	activity change, negative = cytotoxic
N=c1n(CCN2CCCCC2)c2ccccc2n1CC(=O)c1ccc(Cl)c(Cl)c1	inconclusive: 18.4 µM [cytotoxic, single point]	
COc1ccccc1N1CCN(C(=O)c2ccc(CN3CCc4ccccc4C3)cc2)CC1		inactive: -16.4%
COc1ccc(CNC(=O)C(=O)Nc2ccc(OC)cc2OC)cc1	inconclusive: 29.1 µM [rising, single point]	
CC1(C(=O)NS(=O)(=O)C2CC2)CCCN(C(=O)c2c(F)cccc2F)C1 (stereo not given)		inactive: 0%
CCOC(=O)c1c(C)[nH]c(C(=O)CN(C)CC(=O)Nc2ccccc2C(F)(F)F)c1C	inconclusive: 9.2 µM [rising, partial curve, poor fit]	
O=S1(=O)CCOC[C@H](Cc2ccccc2)N1Cc1ccccc1Br	inconclusive: 20.6 µM [cytotoxic, single point]	
COc1ccc(N2CCN(C(=O)c3cn(CC(C)C)c(=O)c4c3c3ccccc3n4C)CC2)cc1	inconclusive: 29.1 µM [cytotoxic, single point]	
CC(NC(=O)CN1C(=O)NC(Cc2ccccc2)(Cc2ccccc2)C1=O)C12CC3CC(CC(C3)C1)C2 (stereo not given)	inconclusive: 29.1 µM [cytotoxic, single point]	
COc1ccc(C2CC(c3c(-c4ccccc4)c4cc(Cl)ccc4[nH]c3=O)=NN2S(C)(=O)=O)cc1OC (stereo not given)	inconclusive: 20.6 µM [cytotoxic, single point]	
COc1ccc(S(=O)(=O)NCC2CCC(C(=O)NCCC(C)C)CC2)cc1 (stereo not given)	inconclusive: 23.1 µM [rising, single point]	
COc1cc(/C=N\NC(=O)c2ccccc2F)ccc1Oc1ccc([N+](=O)[O-])cn1	inconclusive: 20.6 µM [cytotoxic, single point]	
COC(=O)c1cccc(C23CC4(C2)[C@H](CN(Cc2cccnc2)[C@@H]4c2ccccc2)C3c2ccc(C(F)(F)F)cc2)c1 (stereo not given in full)	inconclusive: 20.6 µM [cytotoxic, single point]	
Cc1ccc(C(=O)N2c3ccccc3OCC2C)cc1 (stereo not given)		inactive: -2.24%
Cc1ccc(S(=O)(=O)NC(C)CCc2ccccc2)cc1C(N)=O (stereo not given)	inconclusive: 20.6 µM [cytotoxic, single point]	
COc1cccc(/C=N/NC(=O)c2cc(-c3cccn3C)n[nH]2)c1O	inconclusive: 10.3 µM [cytotoxic, partial curve]	
COc1ccc(Cc2nnc(SCC(=O)Nc3c(C)cccc3C)[nH]c2=O)cc1	inconclusive: 16.4 µM [cytotoxic, partial curve, poor fit]	
COc1ccc(OCC(=O)OCc2cc(=O)n3nc(C4CCCCC4)sc3n2)cc1		inactive: 14.4%
CCOC(=O)N1CCN(C(=O)COc2ccc3ccccc3c2Br)CC1	inconclusive: 0.0326 µM [rising, full curve]	
CCOC(=O)c1sc2ccc(S(=O)(=O)N3CCCCC3)cc2c1N	active: 23.1 µM	
CCOc1ccc(Cl)cc1S(=O)(=O)n1cnc2cc(C)c(C)cc21	inconclusive: 20.6 µM [cytotoxic, single point]	
CCCC[C@H](CC(=O)c1ccccc1)[C@@H](OC(C)=O)C(=O)Oc1c(C(C)C)cccc1C(C)C	inconclusive: 25.9 µM [cytotoxic, single point]	
Cc1c(CCOC(=O)C23CC4CC(CC(C4)C2)C3)sc[n+]1CC#N	inconclusive: 29.1 µM [cytotoxic, single point]	

3 records picked at random from those above:
Structure (SMILES)	Potency	activity change, negative = cytotoxic
CCOC(=O)c1c(C)[nH]c(C(=O)CN(C)CC(=O)Nc2ccccc2C(F)(F)F)c1C	inconclusive: 9.2 µM [rising, partial curve, poor fit]	
COc1ccc(S(=O)(=O)NCC2CCC(C(=O)NCCC(C)C)CC2)cc1 (stereo not given)	inconclusive: 23.1 µM [rising, single point]	
COc1ccccc1N1CCN(C(=O)c2ccc(CN3CCc4ccccc4C3)cc2)CC1		inactive: -16.4%

Later entries.

Structure (SMILES)	Potency	activity change, negative = cytotoxic
Cc1nc(N2CCN(Cc3ccccc3)CC2)nc2c1C(=O)CC(c1ccco1)C2 (stereo not given)	inconclusive: 18.4 µM [cytotoxic, partial curve, poor fit]	
CC(C(=O)c1ccccc1)[n+]1cccc(C(N)=O)c1 (stereo not given)		inactive: 7.96%
O=[N+]([O-])c1ccc(N/N=C\c2cccn2-c2ccccc2)nc1	inconclusive: 25.9 µM [cytotoxic, partial curve, poor fit]	
O=C(c1ccc2c(c1)N(Cc1ccc(F)cc1)C(=O)c1ccccc1S2=O)N1CCC(Cc2ccccc2)CC1 (stereo not given)	inconclusive: 29.1 µM [cytotoxic, single point]	
O=C(c1cccc(Cl)c1)N1CCC(=O)N([C@H](COCc2ccccc2)Cc2ccccc2)CC1		inactive: -14.9%
COc1ccc(NC(C)C(=O)N/N=C/c2c(O)ccc3ccccc23)cc1 (stereo not given)	inconclusive: 16.4 µM [cytotoxic, single point]	
O=C(Nc1cccc(S(=O)(=O)NC2=NCCCCC2)c1)c1cc(-c2ccco2)nc2ccccc12		inactive: 10.1%
CCC[C@H](CN[C@@H](CNC)[C@H](C)CC)NCCc1cc(C(F)(F)F)cc(C(F)(F)F)c1	inconclusive: 25.9 µM [cytotoxic, single point]	
Cn1ccc2cc(-c3ccc4ncnc(NCc5cccs5)c4c3)ccc21	active: 18.4 µM	
Cc1ccc(F)c(S(=O)(=O)NC(=O)C2(C)CCN2C(=O)C2(c3ccc(Cl)cc3)CCC2)c1 (stereo not given)	inconclusive: 29.1 µM [cytotoxic, single point]	
CN(CCc1ccccc1)C(=O)c1ccc(NC(=O)Cc2ccc(NC(=O)C3CCCN(S(=O)(=O)c4cccc([N+](=O)[O-])c4)C3)cc2)cc1 (stereo not given)		inactive: -23.8%
CN(C)CC1CCCCC1C1(O)c2ccccc2CSc2sccc21 (stereo not given)		inactive: -9.67%
O=c1[nH]c(=S)[nH]c(O)c1/C=C1\C=Nc2ccccc21	inconclusive: 29.1 µM [cytotoxic, single point]	
Cc1ccc(CNC(=O)c2ccc(N3CCC4(CC3)CC(c3ccccc3)=NO4)c(NC(=O)c3ccccc3)c2)cc1		inactive: 5.42%
Cc1ccc(S(=O)(=O)NCC(Nc2cccc(Cl)c2)c2ccccc2)cc1 (stereo not given)	inconclusive: 18.4 µM [cytotoxic, single point]	
C=CCC[C@H](Cc1ccc(F)cc1)C(=O)OC[C@@H](Cc1c[nH]c2ccccc12)NC(=O)[C@H](CC=C)CC(=O)N(CCO)Cc1ccccc1	inconclusive: 29.1 µM [cytotoxic, single point]	
CC(C)CC1CCCCC1OC(=O)C[N+]1(C)CCCCC1 (stereo not given)		inactive: 0%
O=C(CSc1ncccn1)N1CCCCCC1		inactive: -0.578%
O=C(NCC1CCCO1)c1ccccc1NS(=O)(=O)c1cc([N+](=O)[O-])ccc1Cl (stereo not given)	inconclusive: 8.2 µM [cytotoxic, partial curve, poor fit]	
CCN1C(=NCc2cccc(C(F)(F)F)c2)N[C@@H](c2cccc(C(F)(F)F)c2)C(C(=O)OC)=C1C	inconclusive: 20.6 µM [cytotoxic, partial curve]	
O=C(Nc1ccccc1)c1nc[nH]c1C(=O)NCCCCNC(=O)c1[nH]cnc1C(=O)Nc1ccccc1		inactive: 0%
FC(F)(F)c1ccc2c(c1)N1CCCC1CN2 (stereo not given)		inactive: -6.75%

Structure (SMILES)	Potency	activity change, negative = cytotoxic
O=C(O)C1=C[C@@H](C2CC2)C[C@@H](OCCCCO)O1		inactive: 0%
COc1ccc(C2CC(c3cccs3)=NN2C(=O)CSc2nc3c(cnn3-c3ccccc3)c(=O)[nH]2)cc1 (stereo not given)	inconclusive: 16.4 µM [cytotoxic, single point]	
COc1ccc(CC(=O)Nc2cc(S(=O)(=O)N3CCOCC3)ccc2N2CCOCC2)cc1		inactive: 1.89%
CCn1cc(/C=N/NC(=O)c2cc3c(ccc4ccccc43)o2)c2ccccc21	inconclusive: 29.1 µM [cytotoxic, single point]	
Cc1cc(C(C)(C)C)cc(C)c1CCNC(=O)c1c(C)noc1C	inconclusive: 29.1 µM [cytotoxic, single point]	
Oc1cccc(/C=C/c2ccc3cccc(O)c3n2)c1	inconclusive: 20.6 µM [cytotoxic, single point]	
CC(C)C[C@H]1CNC(=S)N1C[C@H]1CCCN1C[C@H](Cc1ccc(O)cc1)N1C[C@H](CC(C)C)N(CC2CCCCCC2)C1=S	inconclusive: 29.1 µM [cytotoxic, single point]	
COc1ccc(N(CC(=O)Nc2cc(OC)ccc2OC)S(=O)(=O)c2c(C)nn(C)c2C)cc1	inconclusive: 16.4 µM [cytotoxic, partial curve]	
COc1ccc(NC(=O)C2(C)CCN2C(=O)c2ccc(C(C)(C)C)cc2)cc1OC (stereo not given)	active: 14.6 µM	
Cc1ccc(S(=O)(=O)NCC(c2ccc(N(C)C)cc2)N2CCc3ccccc32)cc1 (stereo not given)		inactive: 1.38%
OCCN(CCO)CC(O)COCCC12CC3CC(CC(C3)C1)C2 (stereo not given)	inconclusive: 29.1 µM [cytotoxic, single point]	
CC1(c2nnc(-c3ccccc3)o2)CC(c2c(Cl)cccc2Cl)=NO1 (stereo not given)	inconclusive: 29.1 µM [cytotoxic, single point]	
O=C1/C(=C/c2ccco2)SC(=S)N1CCC(=O)N1CCCCC1CCO (stereo not given)	inconclusive: 25.9 µM [cytotoxic, single point]	
O=C(O)CNS(=O)(=O)/C=C/c1ccccc1	inconclusive: 25.9 µM [rising, single point]	
Cc1ccc(NC(=O)COC(=O)Cc2c[nH]c3ccccc23)cc1C		inactive: 0.852%
Cc1cc(C)c(C(=O)COC(=O)c2cc([N+](=O)[O-])ccc2N2CCOCC2)cc1C		inactive: 15.3%
Cc1cc(C)cc(C(=O)NCC(=O)N2CCN(C(c3ccccc3)c3ccccc3)CC2)c1	inconclusive: 16.4 µM [cytotoxic, single point]	
CCOc1cc(OCC)nc(S(C)(=O)=O)n1		inactive: 13.6%
Cc1ccc(S(=O)(=O)Nc2cccc3cccnc23)c([N+](=O)[O-])c1	inconclusive: 3.66 µM [cytotoxic, full curve]	
COc1ccc(C(CC(=O)N2CCCC2)c2c(OC)cc(OC)c3c(-c4ccccc4)cc(=O)oc23)cc1 (stereo not given)	inconclusive: 29.1 µM [cytotoxic, single point]	
O=c1[nH]c(-c2cccnc2)nc2sc(-c3ccccc3)cc12	inconclusive: 29.1 µM [cytotoxic, single point]	
